These are yes or no findings as the source states them, for the method shown.
Molecular target: human CEACAM1-4L on stably transfected A549 cells (human) (UniProt P13688)
Experiment: ELISA; cell-based ELISA: sparse monolayers of A549-CEACAM1-4L cells in 96-well plates; Fc protein in cell culture medium added for 2 h on ice; detected with HRP-coupled goat anti human-Fc pAb; absorbance at 450 nm; triplicates; only the binder purified

The chains behind the UniProt entries cited, without tags or fusion partners. Residues count along the entry.
UniProt P13688, residues 35-526: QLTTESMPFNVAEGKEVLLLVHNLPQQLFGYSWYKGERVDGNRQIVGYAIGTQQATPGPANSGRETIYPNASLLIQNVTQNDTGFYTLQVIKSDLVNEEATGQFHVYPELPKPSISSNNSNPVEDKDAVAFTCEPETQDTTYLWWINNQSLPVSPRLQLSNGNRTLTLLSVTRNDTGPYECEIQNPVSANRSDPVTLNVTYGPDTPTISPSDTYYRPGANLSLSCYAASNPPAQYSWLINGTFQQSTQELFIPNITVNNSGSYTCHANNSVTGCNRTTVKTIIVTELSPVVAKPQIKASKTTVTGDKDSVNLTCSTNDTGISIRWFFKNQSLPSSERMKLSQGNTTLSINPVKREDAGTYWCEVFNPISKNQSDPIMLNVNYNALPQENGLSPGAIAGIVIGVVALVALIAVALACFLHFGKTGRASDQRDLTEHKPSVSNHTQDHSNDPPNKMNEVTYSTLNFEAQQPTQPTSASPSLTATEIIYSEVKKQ
UniProt P16573, residues 35-425: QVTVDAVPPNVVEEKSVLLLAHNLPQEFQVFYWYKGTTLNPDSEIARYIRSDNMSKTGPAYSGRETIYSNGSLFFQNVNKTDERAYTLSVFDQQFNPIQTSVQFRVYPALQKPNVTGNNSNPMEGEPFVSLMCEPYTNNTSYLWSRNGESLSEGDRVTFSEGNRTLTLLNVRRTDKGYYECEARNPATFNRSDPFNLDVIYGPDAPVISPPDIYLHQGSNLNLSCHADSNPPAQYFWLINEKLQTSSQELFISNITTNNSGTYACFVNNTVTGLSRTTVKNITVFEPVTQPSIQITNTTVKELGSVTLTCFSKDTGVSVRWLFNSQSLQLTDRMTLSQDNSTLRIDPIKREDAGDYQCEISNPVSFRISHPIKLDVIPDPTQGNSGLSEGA

binding: no binding (tested: 10 µg/ml)
Substance: rat CEACAM1-Fc (from UniProt P16573 35-425) (Fc fusion)

From paper PMC3990526
